Measurements taken from the supplement of paper PMC10849652.
Some of the results follow.

Protein sequences, listed by entry. Tags and fused reporters are not part of them. Lines headed by an entry give the natural chain unless they say otherwise; changes in a name come on top.
UniProt Q15427: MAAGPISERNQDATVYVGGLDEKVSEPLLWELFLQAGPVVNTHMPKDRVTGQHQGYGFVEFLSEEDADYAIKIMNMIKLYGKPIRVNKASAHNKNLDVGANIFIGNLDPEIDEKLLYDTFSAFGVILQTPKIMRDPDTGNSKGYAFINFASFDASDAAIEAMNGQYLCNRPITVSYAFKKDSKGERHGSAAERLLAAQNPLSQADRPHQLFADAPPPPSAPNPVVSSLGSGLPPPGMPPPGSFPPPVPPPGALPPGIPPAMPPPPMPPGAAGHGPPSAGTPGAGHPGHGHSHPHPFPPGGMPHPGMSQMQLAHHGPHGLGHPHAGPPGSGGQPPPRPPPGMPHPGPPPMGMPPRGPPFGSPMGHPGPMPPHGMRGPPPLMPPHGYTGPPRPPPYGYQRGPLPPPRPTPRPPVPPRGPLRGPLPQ
UniProt Q12872: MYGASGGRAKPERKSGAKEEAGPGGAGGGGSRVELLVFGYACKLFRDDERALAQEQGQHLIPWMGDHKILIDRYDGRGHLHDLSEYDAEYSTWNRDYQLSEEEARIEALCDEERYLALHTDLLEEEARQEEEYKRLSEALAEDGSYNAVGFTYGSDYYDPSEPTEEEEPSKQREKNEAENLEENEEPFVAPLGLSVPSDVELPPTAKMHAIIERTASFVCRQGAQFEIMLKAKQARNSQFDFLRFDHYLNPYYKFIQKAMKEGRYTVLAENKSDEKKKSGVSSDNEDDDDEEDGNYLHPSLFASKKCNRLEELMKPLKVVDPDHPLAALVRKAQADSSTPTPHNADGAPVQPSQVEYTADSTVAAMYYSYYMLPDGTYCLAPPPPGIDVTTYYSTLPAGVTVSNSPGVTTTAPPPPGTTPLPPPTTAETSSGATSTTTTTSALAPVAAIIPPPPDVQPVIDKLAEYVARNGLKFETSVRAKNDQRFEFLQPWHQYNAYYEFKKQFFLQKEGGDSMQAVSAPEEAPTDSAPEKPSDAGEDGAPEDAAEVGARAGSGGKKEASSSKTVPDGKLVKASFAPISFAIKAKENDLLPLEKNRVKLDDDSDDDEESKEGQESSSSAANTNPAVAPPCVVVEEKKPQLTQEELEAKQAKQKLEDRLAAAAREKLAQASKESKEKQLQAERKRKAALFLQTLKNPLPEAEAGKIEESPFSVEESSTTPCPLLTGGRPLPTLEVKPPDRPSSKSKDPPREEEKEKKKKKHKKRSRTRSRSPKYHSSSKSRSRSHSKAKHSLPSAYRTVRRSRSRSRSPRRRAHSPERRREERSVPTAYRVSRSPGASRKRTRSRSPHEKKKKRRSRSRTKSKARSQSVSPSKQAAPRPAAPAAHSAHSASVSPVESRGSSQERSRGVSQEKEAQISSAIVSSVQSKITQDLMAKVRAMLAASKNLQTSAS
UniProt Q86TU7: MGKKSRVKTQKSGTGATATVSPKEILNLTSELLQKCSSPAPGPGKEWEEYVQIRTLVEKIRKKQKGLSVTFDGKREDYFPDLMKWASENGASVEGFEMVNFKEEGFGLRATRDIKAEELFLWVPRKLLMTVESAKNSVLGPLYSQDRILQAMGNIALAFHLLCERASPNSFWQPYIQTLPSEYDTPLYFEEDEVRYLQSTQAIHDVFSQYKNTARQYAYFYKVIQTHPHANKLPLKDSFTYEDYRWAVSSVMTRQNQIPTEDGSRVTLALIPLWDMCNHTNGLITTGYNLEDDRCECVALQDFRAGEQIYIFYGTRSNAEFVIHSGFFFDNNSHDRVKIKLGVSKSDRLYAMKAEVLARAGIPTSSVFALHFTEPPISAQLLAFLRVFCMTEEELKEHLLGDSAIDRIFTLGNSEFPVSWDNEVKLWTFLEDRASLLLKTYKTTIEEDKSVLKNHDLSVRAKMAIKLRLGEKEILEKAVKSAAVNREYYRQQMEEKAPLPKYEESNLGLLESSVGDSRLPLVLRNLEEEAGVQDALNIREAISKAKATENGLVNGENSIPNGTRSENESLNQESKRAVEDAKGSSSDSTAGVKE
UniProt Q13530: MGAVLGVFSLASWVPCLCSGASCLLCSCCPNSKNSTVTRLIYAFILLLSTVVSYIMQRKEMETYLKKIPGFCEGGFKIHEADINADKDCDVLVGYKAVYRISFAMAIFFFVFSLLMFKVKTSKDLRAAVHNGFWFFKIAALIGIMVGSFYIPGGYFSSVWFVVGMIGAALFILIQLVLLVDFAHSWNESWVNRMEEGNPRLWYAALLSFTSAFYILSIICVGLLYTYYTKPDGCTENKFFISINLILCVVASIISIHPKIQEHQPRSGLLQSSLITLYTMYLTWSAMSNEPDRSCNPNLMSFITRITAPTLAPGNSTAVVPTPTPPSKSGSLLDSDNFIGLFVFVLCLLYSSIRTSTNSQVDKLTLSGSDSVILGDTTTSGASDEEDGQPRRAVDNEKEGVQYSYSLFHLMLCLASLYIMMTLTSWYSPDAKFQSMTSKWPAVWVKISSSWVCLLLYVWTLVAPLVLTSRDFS
UniProt O15047, whole entry, looked up: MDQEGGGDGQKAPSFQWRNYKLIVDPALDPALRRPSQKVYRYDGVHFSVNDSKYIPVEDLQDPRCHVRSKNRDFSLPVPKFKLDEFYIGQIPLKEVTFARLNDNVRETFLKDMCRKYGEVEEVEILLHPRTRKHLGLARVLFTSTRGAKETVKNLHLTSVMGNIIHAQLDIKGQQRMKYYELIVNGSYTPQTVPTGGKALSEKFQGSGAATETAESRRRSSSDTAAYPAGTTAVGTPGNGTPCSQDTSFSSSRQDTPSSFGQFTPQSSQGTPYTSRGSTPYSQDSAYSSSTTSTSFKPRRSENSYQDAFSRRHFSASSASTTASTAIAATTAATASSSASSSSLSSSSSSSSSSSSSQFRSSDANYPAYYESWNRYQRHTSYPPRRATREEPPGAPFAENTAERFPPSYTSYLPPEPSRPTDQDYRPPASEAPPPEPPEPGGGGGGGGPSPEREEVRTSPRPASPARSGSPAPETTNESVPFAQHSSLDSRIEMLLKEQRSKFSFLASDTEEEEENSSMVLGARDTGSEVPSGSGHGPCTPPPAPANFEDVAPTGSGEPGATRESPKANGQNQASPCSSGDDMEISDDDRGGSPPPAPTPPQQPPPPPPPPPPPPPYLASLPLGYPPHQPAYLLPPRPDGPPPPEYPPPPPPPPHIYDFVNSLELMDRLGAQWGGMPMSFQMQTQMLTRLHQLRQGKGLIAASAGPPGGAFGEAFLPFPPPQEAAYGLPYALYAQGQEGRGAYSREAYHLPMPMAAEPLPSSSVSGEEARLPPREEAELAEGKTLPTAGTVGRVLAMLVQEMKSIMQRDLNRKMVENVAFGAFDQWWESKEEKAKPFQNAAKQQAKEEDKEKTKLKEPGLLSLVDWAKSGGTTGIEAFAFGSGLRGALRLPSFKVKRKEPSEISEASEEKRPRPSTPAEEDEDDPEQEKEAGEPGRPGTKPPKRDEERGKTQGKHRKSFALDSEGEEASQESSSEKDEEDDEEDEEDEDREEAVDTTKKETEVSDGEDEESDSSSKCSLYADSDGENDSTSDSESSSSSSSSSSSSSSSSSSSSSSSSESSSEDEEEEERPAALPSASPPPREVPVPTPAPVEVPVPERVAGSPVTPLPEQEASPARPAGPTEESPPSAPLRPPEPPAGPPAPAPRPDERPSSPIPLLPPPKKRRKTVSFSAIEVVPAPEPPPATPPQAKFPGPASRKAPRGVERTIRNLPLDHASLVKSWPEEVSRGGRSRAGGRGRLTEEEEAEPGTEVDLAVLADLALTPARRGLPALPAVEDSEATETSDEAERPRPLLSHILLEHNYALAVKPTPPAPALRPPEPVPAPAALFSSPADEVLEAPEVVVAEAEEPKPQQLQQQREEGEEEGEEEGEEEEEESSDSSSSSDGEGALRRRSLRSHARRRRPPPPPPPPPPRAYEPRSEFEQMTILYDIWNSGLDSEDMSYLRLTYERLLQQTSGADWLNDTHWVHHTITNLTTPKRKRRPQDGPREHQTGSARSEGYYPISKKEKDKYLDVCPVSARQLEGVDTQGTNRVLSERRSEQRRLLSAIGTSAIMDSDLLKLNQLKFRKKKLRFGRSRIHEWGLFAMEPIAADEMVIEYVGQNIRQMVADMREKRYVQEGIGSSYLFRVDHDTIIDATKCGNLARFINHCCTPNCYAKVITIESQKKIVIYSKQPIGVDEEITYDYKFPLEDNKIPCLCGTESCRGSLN
UniProt P31947: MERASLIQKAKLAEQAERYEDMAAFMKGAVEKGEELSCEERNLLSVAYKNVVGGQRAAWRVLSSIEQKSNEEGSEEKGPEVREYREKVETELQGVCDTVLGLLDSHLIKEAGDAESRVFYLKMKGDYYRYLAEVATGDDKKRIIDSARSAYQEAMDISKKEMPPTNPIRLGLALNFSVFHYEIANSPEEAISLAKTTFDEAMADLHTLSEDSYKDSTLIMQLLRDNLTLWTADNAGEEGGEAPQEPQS
UniProt Q9UJC5: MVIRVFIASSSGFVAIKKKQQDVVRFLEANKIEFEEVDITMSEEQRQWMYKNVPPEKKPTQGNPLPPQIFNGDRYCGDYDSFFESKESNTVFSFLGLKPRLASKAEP
UniProt Q96EQ0: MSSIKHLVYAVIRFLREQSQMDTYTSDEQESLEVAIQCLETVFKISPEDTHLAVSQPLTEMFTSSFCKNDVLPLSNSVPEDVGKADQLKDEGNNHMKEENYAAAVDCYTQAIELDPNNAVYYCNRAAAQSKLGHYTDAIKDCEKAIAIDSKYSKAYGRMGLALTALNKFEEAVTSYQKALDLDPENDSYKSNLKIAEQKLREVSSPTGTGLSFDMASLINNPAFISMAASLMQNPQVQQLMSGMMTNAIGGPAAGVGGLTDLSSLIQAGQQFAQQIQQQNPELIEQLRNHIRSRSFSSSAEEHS
UniProt P34897: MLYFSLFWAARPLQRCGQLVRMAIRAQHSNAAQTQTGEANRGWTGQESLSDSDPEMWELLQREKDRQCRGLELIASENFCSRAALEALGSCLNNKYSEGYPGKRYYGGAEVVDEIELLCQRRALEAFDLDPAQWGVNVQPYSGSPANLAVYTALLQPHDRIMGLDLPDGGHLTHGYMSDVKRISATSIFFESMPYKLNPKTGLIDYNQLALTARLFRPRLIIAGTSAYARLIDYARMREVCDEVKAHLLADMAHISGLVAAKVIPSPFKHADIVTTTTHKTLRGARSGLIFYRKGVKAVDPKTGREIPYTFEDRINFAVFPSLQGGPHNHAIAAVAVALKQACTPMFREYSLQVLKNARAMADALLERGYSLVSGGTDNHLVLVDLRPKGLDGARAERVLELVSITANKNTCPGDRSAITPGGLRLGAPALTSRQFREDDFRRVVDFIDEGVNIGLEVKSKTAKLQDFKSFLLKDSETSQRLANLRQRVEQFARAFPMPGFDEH
UniProt Q9H9B4: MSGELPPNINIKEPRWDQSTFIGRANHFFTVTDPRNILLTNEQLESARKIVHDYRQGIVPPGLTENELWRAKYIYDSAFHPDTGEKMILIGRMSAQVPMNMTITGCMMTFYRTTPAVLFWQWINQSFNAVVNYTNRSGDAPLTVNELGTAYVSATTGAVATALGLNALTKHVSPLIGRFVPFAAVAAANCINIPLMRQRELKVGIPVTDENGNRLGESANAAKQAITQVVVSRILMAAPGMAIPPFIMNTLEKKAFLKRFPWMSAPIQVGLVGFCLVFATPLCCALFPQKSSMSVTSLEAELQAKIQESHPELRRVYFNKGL
UniProt Q8NC51: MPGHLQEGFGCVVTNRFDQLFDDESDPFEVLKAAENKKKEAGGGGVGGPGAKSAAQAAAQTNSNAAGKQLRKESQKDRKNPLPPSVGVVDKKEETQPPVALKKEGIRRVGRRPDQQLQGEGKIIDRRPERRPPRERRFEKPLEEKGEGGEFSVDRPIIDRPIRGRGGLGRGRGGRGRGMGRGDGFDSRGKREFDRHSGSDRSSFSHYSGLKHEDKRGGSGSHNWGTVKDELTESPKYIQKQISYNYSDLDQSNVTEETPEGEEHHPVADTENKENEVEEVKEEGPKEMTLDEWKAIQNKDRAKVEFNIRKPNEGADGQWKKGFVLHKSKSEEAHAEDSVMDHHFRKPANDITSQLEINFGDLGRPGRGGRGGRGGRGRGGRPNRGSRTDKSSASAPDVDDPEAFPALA
UniProt Q8N6T7, whole entry, looked up: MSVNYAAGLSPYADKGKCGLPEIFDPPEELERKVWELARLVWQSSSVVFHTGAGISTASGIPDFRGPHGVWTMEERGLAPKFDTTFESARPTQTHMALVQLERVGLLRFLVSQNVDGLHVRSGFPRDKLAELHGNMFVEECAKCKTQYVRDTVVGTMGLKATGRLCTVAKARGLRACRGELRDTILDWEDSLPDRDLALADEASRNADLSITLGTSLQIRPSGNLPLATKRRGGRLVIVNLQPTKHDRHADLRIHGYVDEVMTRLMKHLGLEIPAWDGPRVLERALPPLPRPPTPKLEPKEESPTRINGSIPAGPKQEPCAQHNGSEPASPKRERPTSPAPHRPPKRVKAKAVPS

What was measured:
Assay in all cases: log2 fold change, soluble protein after heating vs DMSO (PISA); higher = thermal stabilisation; K562 lysate, 10 uM; active = over 0.2 and 3.5 SD of the protein, either way, in both replicates (recomputed)
lapatinib = compound: CS(=O)(=O)CCNCc1ccc(-c2ccc3ncnc(Nc4ccc(OCc5cccc(F)c5)c(Cl)c4)c3c2)o1 [lapatinib]
In short: (§1)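 K562 pellets were dounce-homogenised in PBS pH 7.4 with 1 mM MgCl2, and the crude extract at 1 mg/mL protein was treated with 10 μM compound for 30 min. Aliquots were heated for 3 min across 48°C-58°C, pooled, and brought to 0.5% NP-40 at 4°C; soluble protein was the supernatant after 21,000xg for 90 min. Soluble protein was quantified by TMTpro 16plex LC-MS/MS with channel sums equalised, and reported as log2 fold change in thermal stability against DMSO controls, with values from duplicates.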

pictilisib = compound: CS(=O)(=O)N1CCN(Cc2cc3nc(-c4cccc5[nH]ncc45)nc(N4CCOCC4)c3s2)CC1 [pictilisib]
In short: as §1

crizotinib = compound: C[C@@H](Oc1cc(-c2cnn(C3CCNCC3)c2)cnc1N)c1c(Cl)ccc(F)c1Cl [crizotinib]
In short: as §1

[1] = compound: C[C@H](C1=CC=C(C=C1)C(=O)NC2=C3C=CNC3=NC=C2)N
In short: as §1

duvelisib = compound: C[C@H](Nc1ncnc2nc[nH]c12)c1cc2cccc(Cl)c2c(=O)n1-c1ccccc1 [duvelisib]
In short: as §1

gandotinib = compound: Cc1cc(Nc2cc(CN3CCOCC3)c3nc(C)c(Cc4ccc(Cl)cc4F)n3n2)n[nH]1 [gandotinib]
In short: as §1

tozasertib = compound: Cc1cc(Nc2cc(N3CCN(C)CC3)nc(Sc3ccc(NC(=O)C4CC4)cc3)n2)n[nH]1 [tozasertib]
In short: as §1

doramapimod = compound: Cc1ccc(-n2nc(C(C)(C)C)cc2NC(=O)Nc2ccc(OCCN3CCOCC3)c3ccccc23)cc1 [doramapimod]
In short: as §1

bafetinib = compound: Cc1ccc(NC(=O)c2ccc(CN3CC[C@H](N(C)C)C3)c(C(F)(F)F)c2)cc1Nc1nccc(-c2cncnc2)n1 [bafetinib]
In short: as §1

[2] = compound: Cc1cccc(CC(=O)N2CCc3c2ccc(-c2cn(C)c4ncnc(N)c24)c3F)n1
In short: as §1

Measured: log2 fold change

SF3B4 (UniProt Q15427)
inactive: lapatinib 0.084 | pictilisib -0.008 | crizotinib 0 | [1] -0.086 | duvelisib -0.006 | gandotinib 0.081 | tozasertib -0.056 | doramapimod -0.004 | bafetinib -0.014 | [2] 0.085

SFSWAP isoform 2 (UniProt Q12872)
inactive: lapatinib -0.078 | pictilisib -0.021 | crizotinib 0.011 | [1] -0.097 | duvelisib -0.024 | gandotinib -0.089 | tozasertib -0.038 | doramapimod 0.064 | bafetinib -0.012 | [2] 0.095

SF1 isoform 5 (UniProt Q15637)
inactive: lapatinib 0.005 | pictilisib -0.016 | crizotinib 0.022 | [1] -0.017 | duvelisib 0.021 | gandotinib 0.066 | tozasertib 0.043 | doramapimod 0.009 | bafetinib 0.018 | [2] 0.019

SIPA1 (UniProt Q96FS4)
inactive: lapatinib 0.012 | pictilisib -0.013 | crizotinib -0.037 | [1] -0.034 | duvelisib -0.001 | gandotinib 0.024 | tozasertib 0.026 | doramapimod 0.008 | bafetinib -0.034 | [2] 0.042

Quoted from the listing (two entries):
SF1 isoform 5 (UniProt Q15637)
inactive: lapatinib 0.005 | pictilisib -0.016 | crizotinib 0.022 | [1] -0.017 | duvelisib 0.021 | gandotinib 0.066 | tozasertib 0.043 | doramapimod 0.009 | bafetinib 0.018 | [2] 0.019

SIPA1 (UniProt Q96FS4)
inactive: lapatinib 0.012 | pictilisib -0.013 | crizotinib -0.037 | [1] -0.034 | duvelisib -0.001 | gandotinib 0.024 | tozasertib 0.026 | doramapimod 0.008 | bafetinib -0.034 | [2] 0.042

More entries follow:

SERINC1 (UniProt Q9NRX5)
inactive: lapatinib -0.088 | pictilisib -0.076 | crizotinib -0.045 | [1] -0.232 | duvelisib -0.012 | gandotinib 0.132 | tozasertib -0.025 | doramapimod 0.08 | bafetinib 0.007 | [2] 0.112

SH3BP5L (UniProt Q7L8J4)
inactive: lapatinib 0.006 | pictilisib -0.004 | crizotinib -0.01 | [1] -0.05 | duvelisib 0.001 | gandotinib 0.031 | tozasertib 0.098 | doramapimod -0.044 | bafetinib 0.001 | [2] 0.015

SLAIN2 (UniProt Q9P270)
inactive: lapatinib -0.006 | pictilisib 0.014 | crizotinib 0.019 | [1] -0.046 | duvelisib -0.012 | gandotinib 0.048 | tozasertib 0.012 | doramapimod 0.012 | bafetinib 0.009 | [2] 0.015

SETD3 (UniProt Q86TU7)
inactive: lapatinib 0.031 | pictilisib -0.021 | crizotinib -0.016 | [1] -0.001 | duvelisib 0.026 | gandotinib -0.055 | tozasertib 0.015 | doramapimod 0.008 | bafetinib -0.036 | [2] 0.019

SH3BGR (UniProt P55822)
inactive: lapatinib -0.016 | pictilisib -0.034 | crizotinib 0.005 | [1] -0.031 | duvelisib 0.029 | gandotinib 0.041 | tozasertib -0.052 | doramapimod 0.026 | bafetinib -0.026 | [2] 0.032

SIRT1 (UniProt Q96EB6)
inactive: lapatinib -0.03 | pictilisib -0.014 | crizotinib -0.022 | [1] 0.055 | duvelisib -0.02 | gandotinib -0.05 | tozasertib 0.004 | doramapimod -0.012 | bafetinib -0.021 | [2] -0.016

SFXN4 (UniProt Q6P4A7)
inactive: lapatinib -0.03 | pictilisib -0.034 | crizotinib -0.089 | [1] -0.087 | duvelisib 0.056 | gandotinib 0.031 | tozasertib 0.004 | doramapimod 0.047 | bafetinib 0.154 | [2] 0.119

SF3A1 (UniProt Q15459)
inactive: lapatinib 0.003 | pictilisib 0.004 | crizotinib 0.003 | [1] -0.077 | duvelisib -0.006 | gandotinib 0.044 | tozasertib -0.001 | doramapimod 0.012 | bafetinib -0.013 | [2] 0.079

SLC12A6 (UniProt Q9UHW9)
inactive: lapatinib 0.037 | pictilisib -0.046 | crizotinib -0.025 | [1] 0.008 | duvelisib 0.015 | gandotinib -0.028 | tozasertib -0.002 | doramapimod 0.027 | bafetinib -0.011 | [2] 0.034

SERINC3 (UniProt Q13530)
inactive: lapatinib -0.052 | pictilisib -0.028 | crizotinib -0.07 | duvelisib -0.001 | gandotinib 0.16 | tozasertib -0.012 | doramapimod 0.03 | bafetinib -0.014 | [2] 0.075
active: [1] -0.38

SETD1A (UniProt O15047)
inactive: lapatinib -0.053 | pictilisib -0.045 | crizotinib -0.019 | [1] 0.052 | duvelisib 0.037 | gandotinib -0.044 | tozasertib 0.003 | doramapimod 0.005 | bafetinib -0.051 | [2] -0.011

SETDB1 (UniProt Q15047)
inactive: lapatinib -0.066 | pictilisib -0.009 | crizotinib 0.014 | [1] -0.123 | duvelisib 0.007 | gandotinib 0 | tozasertib -0.015 | doramapimod 0.015 | bafetinib -0.065 | [2] 0.053

SIL1 (UniProt Q9H173)
inactive: lapatinib 0.006 | pictilisib -0.065 | crizotinib -0.042 | [1] -0.024 | duvelisib -0.002 | gandotinib 0.004 | tozasertib -0.047 | doramapimod -0.005 | bafetinib -0.058 | [2] 0.032

SFN (UniProt P31947)
inactive: lapatinib 0.018 | pictilisib 0.117 | crizotinib 0.055 | duvelisib -0.029 | gandotinib -0.043 | tozasertib 0.006 | doramapimod 0.019 | bafetinib 0.047 | [2] -0.117
active: [1] 0.347

SH3BGRL2 (UniProt Q9UJC5)
active: [1] 0.342
inactive: lapatinib 0.021 | pictilisib 0.012 | crizotinib -0.025 | duvelisib -0.007 | gandotinib -0.116 | tozasertib -0.078 | doramapimod 0.021 | bafetinib -0.058 | [2] -0.184

SLC11A1, A0A0A0MTL3
inactive: lapatinib -0.112

SGTB (UniProt Q96EQ0)
inactive: lapatinib -0.009 | pictilisib -0.01 | crizotinib 0.017 | [1] 0.106 | duvelisib 0.04 | gandotinib -0.025 | tozasertib 0.051 | doramapimod -0.046 | bafetinib 0.011 | [2] -0.079

SHKBP1 (UniProt Q8TBC3)
inactive: lapatinib -0.027 | pictilisib -0.045 | crizotinib -0.009 | [1] -0.045 | duvelisib 0.055 | gandotinib 0.034 | tozasertib -0.009 | doramapimod 0.005 | bafetinib -0.04 | [2] 0.055

SF3B2 (UniProt Q13435)
inactive: lapatinib -0.008 | pictilisib 0 | crizotinib 0.014 | [1] -0.072 | duvelisib -0.002 | gandotinib -0.006 | tozasertib -0.006 | doramapimod -0.009 | bafetinib -0.013 | [2] 0.024

SHMT2 (UniProt P34897)
inactive: lapatinib 0.012 | pictilisib -0.013 | crizotinib -0.011 | [1] -0.009 | duvelisib 0.007 | gandotinib 0.016 | tozasertib 0.004 | doramapimod 0.009 | bafetinib 0.023 | [2] -0.026

SFXN1 (UniProt Q9H9B4)
inactive: lapatinib -0.08 | pictilisib -0.011 | crizotinib -0.047 | [1] 0.001 | duvelisib -0.007 | gandotinib -0.127 | tozasertib -0.003 | doramapimod 0 | bafetinib -0.042 | [2] 0.077

SERBP1 (UniProt Q8NC51)
inactive: lapatinib -0.013 | pictilisib 0.054 | crizotinib 0.023 | [1] 0.21 | duvelisib -0.018 | gandotinib -0.013 | tozasertib 0.015 | doramapimod -0.045 | bafetinib 0.065 | [2] -0.064

SIRT6 (UniProt Q8N6T7)
inactive: lapatinib -0.173 | pictilisib -0.091 | crizotinib -0.038 | [1] -0.029 | duvelisib 0.041 | gandotinib -0.004 | tozasertib -0.021 | doramapimod 0.159 | bafetinib -0.013 | [2] 0.071

SFXN2 (UniProt Q96NB2)
inactive: lapatinib -0.038 | pictilisib 0.047 | crizotinib -0.065 | [1] 0.073 | duvelisib 0.051 | gandotinib -0.101 | tozasertib 0.031 | doramapimod -0.043 | bafetinib -0.072 | [2] 0.05

SGPL1 (UniProt O95470)
inactive: lapatinib 0.005 | pictilisib -0.061 | crizotinib -0.066 | [1] -0.055 | duvelisib 0.012 | gandotinib 0.141 | tozasertib -0.095 | doramapimod 0.025 | bafetinib -0.019 | [2] 0.008

SHMT1 (UniProt P34896)
inactive: lapatinib -0.01 | pictilisib -0.038 | crizotinib 0.005 | [1] -0.014 | duvelisib 0.02 | gandotinib 0.015 | tozasertib -0.01 | doramapimod 0.012 | bafetinib 0.023 | [2] -0.007
